These results are taken from the supplement of paper PMC8007513.

Some of the results follow. Most values come without repeats; read them as rough.

The assay relates to Saccharomyces cerevisiae BY4743. As to the kind of experiment: growth (OD600) relative to untreated control; higher = less growth inhibition. As to conditions: compound concentration: 133 uM; 20 h. As for the experimental part:
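NMCCC compounds (133 uM, no IPBC) tested alone against Saccharomyces cerevisiae BY4743 in YPD, 96-well plates, starting OD600 ~0.1. Growth was read as OD600 at 20 h and expressed as % of the untreated control. Single pass.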
With `CCC(C)(CNC(=O)c1cc(Br)c(Br)s1)N1CCOCC1` (stereo unspecified), the growth stood at 108%. Compound `CCCc1cc(NCCN(C)C)n2nc3nc(C)cc(C)c3c2n1` showed a growth of 107%. On to `N#Cc1c(O)nc(SCc2cccc(C(=O)O)c2)nc1-c1ccco1`, for which the growth was 97%. In turn, `COC(=O)c1nn(CC(=O)c2ccc(F)cc2)c2ccccc12` returned a growth of 94.8%. With `CN1C(=O)\C=C(CSC2=NN=C(NC3CC3)S2)/N(C)C1=O`, the growth came out at 94.9%. `CCN(CC)S(=O)(=O)c1ccc(Cl)c(NC(=O)COc2ncnc3sccc23)c1` showed a growth of 102%. In turn, `COc1cc(C(C)NC(=O)c2c(-c3ccccc3)noc2C)cc(OC)c1OC` (stereo unspecified) gave a growth of 97%.

With `COc1ccccc1NC(=O)c1ccc(NC(=O)CSc2nnc(C)n2N)cc1`, the growth was 98.4%.

With `Cc1ccc(-c2ccc(CCC(=O)Nc3ccc(C(N)=O)cc3)o2)cc1C`, the growth is 97.9%. `CNS(=O)(=O)c1cc(NC(=O)c2cc3ccccc3cc2O)ccc1C` had a growth of 109%. Compound `COC1=CC=C2[N]3CC\N=C(NCCO)/C3=CC2=C1` gave a growth of 104%. Compound `CCc1noc(CSc2nnc3ccc(S(=O)(=O)N(CC)CC)cn23)n1` displayed a growth of 98.5%.

In the case of `COc1ccc(F)cc1-c1csc(Cc2csc(C)n2)n1`, the growth was 96.7%.

For `CC1=CC=C(NC(=O)\C2=C\CN(CC2)CC3=CC=C(F)C=C3)C=C1F`, the growth is 113%. For the compound `COc1ccc(OC)c(C2CCCN2C(=O)COc2ccc(NC(C)=O)cc2)c1` (stereo unspecified), the growth came to 107%. Consider `COc1ccc(-c2noc(CC(=O)N(C)c3cc(C)ccc3C)n2)cc1`, for which the growth turned out to be 94.2%.
